The text below walks through data of the supplement of paper PMC7858590.

Structures are written as SMILES. ± gives the standard deviation of the averaged measurements. In all, about 3,800 compounds were measured (“cell shape (eccentricity) Z-score vs DMSO control”: median about 1.1, lowest 2% from about -4.7 on). The list shows a part of the results.

This experiment deals with human monocyte-derived macrophages (M0). Description: cell shape (eccentricity) Z-score vs DMSO control; higher = more elongated, M2-like morphology. The note with it: 20 µM; 24 h; macrophage state: M0 (M-CSF).
In the case of `C=C[C@@]12COC(=O)C(=C)[C@@H]1[C@@H](O)[C@H](C(=C)C(=O)OC)[C@@H](O)C2`, the “cell shape (Z-score)” value was 0.752 ± 1.1.
Under `COc1cc(/C=C\C(=O)O)cc(OC)c1OC` stands 3.06; under `COc1cc2cc(Oc3ccc4ccc(=O)oc4c3)c(=O)oc2cc1O`, 2.63.
Consider `CN1CCC(=C2c3ccccc3Sc3ccccc32)CC1`, for which the “cell shape (Z-score)” value was -2.28.
Under `NC(Cc1ccc(F)cc1)C(=O)O` (configuration not stated) stands 1.9.
The result for `N#C/C(=C\c1ccc(-c2cc(Cl)ccc2Cl)o1)C(=O)Nc1cccc2ncccc12` reads 3.94; that for `COc1c2ccoc2c(OC)c2oc(=O)ccc12`, 3.27.
For `COc1cc(C2c3c(cc(OC)c(O)c3OC)CC(CO)C2CO[C@@H]2O[C@H](CO)[C@@H](O)[C@H](O)[C@H]2O)cc(OC)c1O` (some centres not stated), the “cell shape (Z-score)” value is -0.312.
The result for `S=C(NCCCc1c[nH]cn1)NCCCN(Cc1ccc(Cl)c(Cl)c1)c1ccc(Br)cn1` reads -2.3; that for `COc1ccc(Cn2ccc3ccc(C(=O)NO)cc32)cc1`, 2.12; that for `CC(Nc1nc(N2CCCC2)nc2ccccc12)c1ccccc1` (configuration not stated), -7.72.
The result for `C=C(CC/C=C(\C)C(=O)O)C1(O)CC=C(C)CC1` (configuration not stated) reads 1; that for `Cc1cc(O)cc2c(=O)oc(CC(C)O)cc12` (configuration not stated), 1.58.
As to `O=C(NC(Cc1cc(=O)[nH]c2ccccc12)C(=O)O)c1ccc(Cl)cc1` (configuration not stated), the “cell shape (Z-score)” value was 2.97.
Under `Cc1ccc(-n2nc(C(C)(C)C)cc2NC(=O)Nc2ccc(OCCN3CCOCC3)c3ccccc23)cc1` stands 0.227; under `C=C1C[C@@]23CCC4[C@](C)(C(=O)O)CCC[C@@]4(C)[C@]2(O)CCC1C3` (some centres not stated), 1.15.
The result for `O=C1NCCN1c1ncc([N+](=O)[O-])s1` reads 2.77.
Consider `CC(=O)Nc1ccccc1`, for which the “cell shape (Z-score)” value stood at 0.211.
The result for `O=C(O)COc1ccc(OCCNC[C@@H](O)COc2ccccc2)cc1` reads 0.185; that for `CC1(C)O[C@@H]2CC3C4CCC5=CC(=O)C=C[C@]5(C)[C@@]4(F)[C@@H](O)C[C@]3(C)[C@]2(C(=O)CO)O1` (some centres not stated), -2.57; that for `C#C[C@]1(O)CCC2C3CCc4cc(O)ccc4C3CC[C@@]21C` (some centres not stated), 0.967.
With `COc1ccc(NC(=O)c2ccc(-c3ccc(-c4noc(C)n4)cc3C)cc2)cc1OCCN(C)C`, the “cell shape (Z-score)” value was -2.7.
In the case of `COc1ccc2[nH]c([S@@](=O)Cc3ncc(C)c(OC)c3C)nc2c1`, the “cell shape (Z-score)” value came out at 1.92.
Under `Cc1ccc(O)c(N=Nc2ccccc2)n1` stands -7.89.
Under `CC(C)(C)NC[C@@H](O)COc1nsnc1N1CCOCC1` stands -0.952.
Under `O=C1CC2(CCCC2)CC(=O)N1CCCCN1CCN(c2ncccn2)CC1` stands 1.42.
Turning to `O=C(/C=C/c1ccccc1)c1ccc(O[C@@H]2O[C@H](CO)[C@@H](O)[C@H](O)[C@H]2O)cc1O`, the “cell shape (Z-score)” value was 3.01.
Turning to `CCC[C@@H](O)[C@H](O)[C@@H]1CC(OC)=CC(=O)O1`, the “cell shape (Z-score)” value turned out to be 2.06.
Under `CC1CCCC2OC2C(=O)c2c(O)cc(O)cc2CC(=O)O1` (configuration not stated) stands 0.58 ± 1.3; under `C[C@]12CCC3c4ccc(O)cc4CCC3C1CC[C@@H]2O` (some centres not stated), 2.56.
Consider `O=C1NCc2c1c1c3ccccc3[nH]c1c1[nH]c3ccccc3c21`, for which the “cell shape (Z-score)” value is 0.865.
Under `COc1cc2nccc(Oc3ccc(NC(=O)C4(C(=O)Nc5ccc(F)cc5)CC4)cc3)c2cc1OC` stands 3.17 ± 3.5.
Under `N#CC[C@H](C1CCCC1)n1cc(-c2ncnc3[nH]ccc23)cn1` stands 10.4 ± 1.8; under `COc1ccccc1N1CCN(CC(C(=O)NC(C)(C)C)c2ccccc2)CC1` (configuration not stated), 0.978; under `CCCc1cc(=O)[nH]c(=S)[nH]1`, 1.43.
The result for `Nc1nc(OCc2ccccc2)c2[nH]cnc2n1` reads 0.888; that for `O=c1cc(-c2ccc(O)cc2)oc2cc(O)cc(O)c12`, 6.7; that for `CC(C)(Sc1cc(C(C)(C)C)c(O)c(C(C)(C)C)c1)Sc1cc(C(C)(C)C)c(O)c(C(C)(C)C)c1`, 2.42.
Regarding `Nc1nc(N)c2nc(-c3cccc(O)c3)c(-c3cccc(O)c3)nc2n1`, the “cell shape (Z-score)” value was 5.89.
For the compound `COC(=O)c1cc(CN2CCN(C(=N)N)CC2)cc(C(=O)N2CCN(C(=O)c3ccc(C(=N)N)cc3)CC2)c1`, the “cell shape (Z-score)” value came to 0.988.
For the compound `O=C(O)c1cc(O)c2ccc(Cl)cc2n1`, the “cell shape (Z-score)” value amounted to 1.76.
The result for `Cc1ccc(C=C2CNCC(=Cc3ccc(C)cc3)C2=O)cc1` reads -0.8; that for `CCc1ccccc1NC(=O)CSC(=O)NNC(=O)[C@@H](Cc1c[nH]c2ccccc12)NC(=O)OC(C)(C)C`, 3.78.
Under `COc1cc(O[C@@H]2O[C@H](COC3OCC(O)C(O)C3O)[C@@H](O)[C@H](O)[C@H]2O)cc(OC)c1OC` (some centres not stated) stands 2.18; under `CC(=O)Nc1cc2ccccc2oc1=O`, -1.02.
Under `CCN(CC)CCC(=O)N1c2ccccc2Sc2ccc(Cl)cc21` stands -0.319; under `CCC(C)N(C)C(=O)c1cc2ccccc2c(-c2ccccc2Cl)n1` (configuration not stated), -0.00854; under `CC(=O)OC(CCCCCCCCCC(C)O)Cc1cc(O)cc(O)c1` (configuration not stated), -0.554.
With `CCOc1ccc2nc(S(N)(=O)=O)sc2c1`, the “cell shape (Z-score)” value amounted to 2.05.
Regarding `O=C(O)c1cc(/N=N/c2ccc(S(=O)(=O)Nc3ccccn3)cc2)ccc1O`, the “cell shape (Z-score)” value turned out to be 0.855.
Under `CS(=O)(=O)c1ccc(C2=C(c3ccccc3)C(=O)OC2)cc1` stands 2.97.
The result for `CC1(C)O[C@@H]2CC3C4CCC5=CC(=O)C=C[C@]5(C)C4[C@@H](O)C[C@]3(C)[C@]2(C(=O)CO)O1` (some centres not stated) reads -2.99; that for `CCn1cc(C(=O)O)c(=O)c2cnc(N3CCCC3)nc21`, 1.
As to `O=C(O)/C=C/C=C/c1ccccc1`, the “cell shape (Z-score)” value was found to be 0.396.
On to `CC(C)(C=O)Cc1cc(C(C)(C)C)c(O)c(C(C)(C)C)c1`, for which the “cell shape (Z-score)” value came to 3.85.
For `COc1ccc(OC)c(-c2nnc3n2N=C(c2ccc(OC)c(OC)c2)CS3)c1`, the “cell shape (Z-score)” value is 16.2.
The result for `CN(C/C=C/C#CC(C)(C)C)Cc1cccc2ccccc12` reads 2.26.
Under `Cc1cc(C)c(/C=C2\C(=O)Nc3ccccc32)[nH]1` stands 2.58.
With `N#C/C(=C\c1ccc(O)c(O)c1)C(=O)Nc1ccccc1`, the “cell shape (Z-score)” value was found to be 0.369.
Under `NCCNC(=O)c1ccc(Cl)cn1` stands -0.702; under `N#Cc1cc(I)c(O)c([N+](=O)[O-])c1`, 0.813.
In the case of `CCOC(=O)C1=C(COCCN)NC(C)=C(C(=O)OC)C1c1ccccc1Cl` (configuration not stated), the “cell shape (Z-score)” value amounted to 0.616.
In the case of `COC(=O)c1cc(O)c(C(=O)c2c(O)cccc2C(=O)O)c(O)c1`, the “cell shape (Z-score)” value is -1.89.
As for `Nc1c2c(nc3c1CCC3)CCCC2`, the “cell shape (Z-score)” value was -1.7.
Under `C/C=C1\C(O[C@@H]2O[C@H](CO[C@@H]3O[C@H](CO)[C@@H](O)[C@H](O)[C@H]3O)[C@@H](O)[C@H](O)[C@H]2O)OC=C(C(=O)OC)C1CC(=O)OCCc1ccc(O)cc1` (some centres not stated) stands 0.445.
The result for `COc1ccc(-c2cc(=O)c3c(O)cc(OC)c(OC)c3o2)c(OC)c1` reads 5.59; that for `CCOC(=O)C1CSC(Cc2ccc(OCc3ccc([N+](=O)[O-])cc3)cc2)N1` (configuration not stated), 0.491.
